{
  "source": "patent US11578049B2",
  "about": "“Benzoic acid compound and method for preparing the same” (Henan Genuine Biotech Co., Ltd., priority 2018, dated 2023)",
  "test_system": "rats exposed to cerebral ischemia and reperfusion",
  "experiment": "Cerebral blood flow in rats exposed to cerebral ischemia and reperfusion (tMCAO), laser Doppler",
  "format": "in vivo, Sprague Dawley (SD) rats",
  "description": "1.2 Experimental procedure: Male Sprague Dawley (SD) rats was subjected to operation after experimental adaption for 5-7 days, with a weight of 200-250 g. The rats were anesthetized by intraperitoneal injection of 0.35 mL/100 g 10% chloral hydrate, and positioned on a temperature-controlled, operating surface. The common carotid artery was isolated from surrounding nerves to the bifurication between the external carotid artery and the internal carotid artery. The external carotid artery was then isolated. A sterile middle cerebral artery occlusion (MCAO) suture was advanced through external carotid artery into the internal carotid artery (about 18 mm±0.5 mm from the point of the carotid bifurication), effectively occluding the middle cerebral artery. The suture was withdrawn after 2 hours ischemic period to simulate clinical reperfusion. All rats were scored according to Longa scoring system, in which the rats with a total score less than 1 were withdrawn. The rats were kept on a heating blanket and allowed to recover from anesthesia. A neurobehavioral examination was performed at 24 h after awakening. […]\nAll data was imported into an Excel worksheet, and expressed as mean±standard error of the mean. Statistical significance was determined by one-way ANOVA with Dunnett's multiple comparison test (*P<0.05, **P<0.01).",
  "note": "Some results were stated once for a whole list of compounds, not compound by compound.",
  "data": [
    {"smiles": "O=C([O-])c1cc(Br)ccc1C(O)CCC1CC1.[Na+]", "note": "(centres unmarked) [Compound 14]", "values": [
      {"measurement": "effect on the recovery of cerebral blood flow after cerebral ischemia-reperfusion (in words)", "value": "significant effects"}
    ]},
    {"smiles": "O=C([O-])c1cc(Br)ccc1C(O)CCCCF.[Na+]", "note": "(centres unmarked) [Compound 15]", "values": [
      {"measurement": "effect on the recovery of cerebral blood flow after cerebral ischemia-reperfusion (in words)", "value": "significant effects"}
    ]}
  ]
}
